PubChem BioAssay AID1159599 | NIAID, 2016

Purpose: 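Effect of knocking down TLR signalling components on Tnf reporter after LPS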
Cell system: mouse RAW264.7 G9 macrophage reporter clone cells
Knock-down reagent: single siRNA against mouse genes
Time to read-out: 48 to 72 h after siRNA transfection, LPS for the last 16 h
Conditions: LPS (Salmonella minnesota R595), 16 h before fixation; dose not stated
Detection: 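Nuclear mCherry from a Tnf promoter reporter imaged after LPS, background removed, robust z-score from per-plate median and MAD, averaged over replicates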
Direction: Tnf reporter z-score: higher = stronger Tnf promoter reporter signal after LPS
Rule for the call: 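Active when the replicate-mean Tnf reporter z-score is about -1.5 or lower, or about 1.5 or higher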
Meaning of the calls: active = strong change either way; inactive = little change
The deposit covers 756 reagents; shown is an unselected part. Of all reagents, 130 (17%) are marked active. 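Calls are two-sided: actives include siRNAs that raised the Tnf reporter as well as ones that lowered it.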 The record does not give: the amount of reagent.

Gene | PubChem SID | Tnf reporter z-score, replicate mean | activity call
Pik3cd | SID303071656 | -0.62 | inactive
Pik3cd | SID303071657 | -1.27 | inactive
Pik3cd | SID303071658 | -0.685 | inactive
Pik3cd | SID303071659 | -0.164 | inactive
Pik3cd | SID303071660 | -1.45 | inactive
Pik3cd | SID303071661 | -1.07 | inactive
Il12b (interleukin 12b) | SID303071830 | -2.14 | active
Il12b (interleukin 12b) | SID303071831 | -0.0468 | inactive
Il12b (interleukin 12b) | SID303071832 | -0.213 | inactive
Il12b (interleukin 12b) | SID303071833 | 0.876 | inactive
Il12b (interleukin 12b) | SID303071834 | -1.11 | inactive
Il12b (interleukin 12b) | SID303071835 | 0.184 | inactive
Tlr5 (toll-like receptor 5) | SID303071218 | -0.369 | inactive
Tlr5 (toll-like receptor 5) | SID303071219 | 1.83 | active
Tlr5 (toll-like receptor 5) | SID303071220 | -0.104 | inactive
Tlr5 (toll-like receptor 5) | SID303071221 | 1.01 | inactive
Tlr5 (toll-like receptor 5) | SID303071222 | -0.668 | inactive
Tlr5 (toll-like receptor 5) | SID303071223 | -0.369 | inactive
Mapk3 (mitogen-activated protein kinase 3) | SID303071458 | -0.128 | inactive
Mapk3 (mitogen-activated protein kinase 3) | SID303071459 | 2.13 | active
Mapk3 (mitogen-activated protein kinase 3) | SID303071460 | -0.749 | inactive
Mapk3 (mitogen-activated protein kinase 3) | SID303071461 | 0.192 | inactive
Mapk3 (mitogen-activated protein kinase 3) | SID303071462 | -1.3 | inactive
Mapk3 (mitogen-activated protein kinase 3) | SID303071463 | 0.343 | inactive
Map2k1 (mitogen-activated protein kinase kinase 1) | SID303071446 | 0.13 | inactive
Map2k1 (mitogen-activated protein kinase kinase 1) | SID303071447 | -0.902 | inactive
Map2k1 (mitogen-activated protein kinase kinase 1) | SID303071448 | -0.977 | inactive
Map2k1 (mitogen-activated protein kinase kinase 1) | SID303071449 | -0.0743 | inactive
Map2k1 (mitogen-activated protein kinase kinase 1) | SID303071450 | -1.72 | active
Map2k1 (mitogen-activated protein kinase kinase 1) | SID303071451 | -0.658 | inactive
Tlr4 (toll-like receptor 4) | SID303071212 | -0.841 | inactive
Tlr4 (toll-like receptor 4) | SID303071213 | -1.01 | inactive
Tlr4 (toll-like receptor 4) | SID303071214 | -1.63 | active
Tlr4 (toll-like receptor 4) | SID303071215 | -1.14 | inactive
Tlr4 (toll-like receptor 4) | SID303071216 | -0.527 | inactive
Tlr4 (toll-like receptor 4) | SID303071217 | -1.54 | active
Itgax (integrin alpha X) | SID303071272 | 1.58 | active
Itgax (integrin alpha X) | SID303071273 | -0.298 | inactive
Itgax (integrin alpha X) | SID303071274 | -0.919 | inactive
Itgax (integrin alpha X) | SID303071275 | 0.275 | inactive
Itgax (integrin alpha X) | SID303071276 | -0.165 | inactive
Itgax (integrin alpha X) | SID303071277 | -0.456 | inactive
Tank (TRAF family member-associated Nf-kappa B activator) | SID303071602 | -0.532 | inactive
Tank (TRAF family member-associated Nf-kappa B activator) | SID303071603 | 1.41 | inactive
Tank (TRAF family member-associated Nf-kappa B activator) | SID303071604 | 0.685 | inactive
Tank (TRAF family member-associated Nf-kappa B activator) | SID303071605 | 1.29 | inactive
Tank (TRAF family member-associated Nf-kappa B activator) | SID303071606 | 0.00624 | inactive
Tank (TRAF family member-associated Nf-kappa B activator) | SID303071607 | 0.306 | inactive

Records above called active (7):
Gene | PubChem SID | Tnf reporter z-score, replicate mean | activity call
Il12b (interleukin 12b) | SID303071830 | -2.14 | active
Tlr5 (toll-like receptor 5) | SID303071219 | 1.83 | active
Mapk3 (mitogen-activated protein kinase 3) | SID303071459 | 2.13 | active
Map2k1 (mitogen-activated protein kinase kinase 1) | SID303071450 | -1.72 | active
Tlr4 (toll-like receptor 4) | SID303071214 | -1.63 | active
Tlr4 (toll-like receptor 4) | SID303071217 | -1.54 | active
Itgax (integrin alpha X) | SID303071272 | 1.58 | active
